Earlier results as cited in patent US7179616B1, “Method for detecting phosphatidylserine on the surface of cells” (University of Notre Dame du Lac, priority 2002, dated 2007).

Test system: membranes that are rich in PS
Conditions: cited from earlier work

In the case of annexin V: 35 Kd PS-binding protein, the “extracellular Ca^2+ needed for complete membrane binding” value is listed as “up to 2.5 mM”.
